Assay results taken from patent US6906170B1 (Yeda Research and Development Co. Ltd., priority 1998, dated 2005).
Some of these results come from one statement about several compounds together.

System: human T cells
Assay: T cell chemotaxis through FN-coated polycarbonate membranes
Assay type: cell-based
Conditions: chemoattractant in lower compartment
Experimental: T cell migration towards the chemotactic sources was assessed after 2 hr. One experiment representative of four.
Chemotaxis assays. T cell chemotaxis was performed and analyzed as previously described (Ben-Baruch et al., 1997). Briefly, the migration of human T cells (0.5×10^6 cells in adhesion medium/well) was examined in a 48-well chemotaxis micro-chamber (Neuro-Probe Inc., Cabin John, M D). The two compartments of the micro-chambers were separated by a FN-coated polycarbonate filter (5 μm pore size; Osmonics Protein Products, Livemore, Calif.). […] After incubation (120 min, 37° C., in a humidified, 7.5% CO2 atmosphere); the filters were removed, fixed, and stained with a Diff-Quik staining kit Dade, Düdingen, Switzerland). The number of migrating T cells in five high-power fields (under 500× magnification; WILD Microscope, Heerbrugg, Switzerland) was evaluated. For each group, the results are expressed as the mean number of cells in one high-power field.
Immune cell migration is the outcome of a subtle biological equilibrium existing between adhesion and detachment events. Lymphocyte adhesion to the subendothelial ECM and subsequent migration are two active processes that can overlap, but are not mutually dependent events. […]

B1: MIP-1β: recombinant human macrophage inflammatory protein MIP-1β (protein, UniProt P13236 24-92, looked up)
C-C motif chemokine 4: APMGSDPPTACCFSYTARKLPRNFVVDYYETSSLCSQPAVVFQTKRSKQVCADPSESWVQEYVYDLELN
For B1, the “induced T cell migration through FN-coated membranes relative to control” value was 3 to 4 fold.
